Results reported in patent publication US20060058320A1, “[1,2,4] Triazolo[1,5-c]pyrimidine derivatives” (KYOWA HAKKO KOGYO CO., LTD., priority 2002, published 2006).
Where a name gives a salt, the structure may show the parent alone. At least one read-out could not be matched to a standard name with certainty.

System: CGS 21680-induced catalepsy
Assay: Activity on CGS 21680-induced catalepsy
Format: in vivo, mice
Settings: cases with catalepsy score of 4 points or less in 10 cases; 10 mg/kg orally
Experimental: Parkinson's disease is a motor disorder based on degeneration and cell death of the nigrostriatal dopaminergic neurons. When CGS 21680 (adenosine A2A receptor agonist) is administered into the intracerebral ventricle, the inhibitory synaptic transmission of GABA in the medium sized spiny neurons in the corpus striatum is inhibited directly via the adenosine A2A receptor [Journal of Neuroscience, vol. 16, p. 605 (1996)]. Accordingly, it is concidered that the adenosine A2A receptor agonists positively regulate the output of the GABAergic neurons from the corpus striatum to the globus pallidus lateralis, and, as a result, catalepsy is induced by the administration of CGS 21680.
The test was carried out using ten 5-week age male ddY mice (22-25 g in body weight, Japan SLC) per group. CGS 21680 (produced by RBI Co) was dissolved in physiological saline (produced by Otsuka Pharmaceutical Co., Ltd.), and 10 μg/20 μL of the solution was injected into mouse intracerebral ventricle. Each test compound was used by suspending it in distilled water containing 0.3% of polyoxylene (20) sorbitan monooleate (referred to as “Tween 80” hereinafter) (produced by Otsuka Pharmaceutical Co., Ltd.). The suspension containing each test compound or a solution containing no test Compound (distilled water containing 0.3% of Tween 80; used as a control) was orally administered (0.1 mL per 10 g of mouse body weight) 30 minutes before the injection of CGS 21680 into the intracerebral ventricle. One hour after the administration of the each test compound, only forelimbs or only hindlimbs of each mouse were laid on a vertically arranged stand made of acryl and having a size of 4.5 cm in height and 1.0 cm in width to measure catalepsy symptoms. All of the test compounds were administered orally in a dose of 10 mg/kg.
The criteria of the catalepsy score are shown below.
The effect was decided by a total catalepsy score of 10 mice in one group (the maximum score: 50 points). When the total score was 40 points or less, the activity of the compounds was decided positive. The number of the animals showing remission of catalepsy was expressed by the number of cases showing a catalepsy score of 4 points or less in 10 cases. The catalepsy remission ratio was expressed as the percentage of the total score in the test compound-administered group to the total score in the control group.

| SMILES | Number of animals showing remission |
| --- | --- |
| COCCN1CCN(Cc2cc3nc(-c4ccco4)nn3c(N)n2)CC1 [Compound 49, 5-Amino-2-(2-furyl)-7-[4-(2-methoxyethyl)piperazin-1-yl-methyl][1,2,4]triazolo[1,5-c]pyrimidine dihydrochloride] | 10 |
| CC(C)(O)CCN1CC=C(c2cc3nc(-c4ccco4)nn3c(N)n2)CC1 [Compound 76, 5-Amino-7-[1-(3-methyl-3-hydroxybutyl)-1,2,3,6-tetrahydro-pyridin-4-yl]-2-(2-furyl)[1,2,4]triazolo[1,5-c]pyrimidine] | 10 |
| COc1ccc(CN(C)Cc2cc3nc(-c4ccco4)nn3c(N)n2)cc1OC [Compound 35, 5-Amino-7-[(N-methyl-3,4-dimethoxybenzylamino)methyl]-2-(2-furyl)[1,2,4]triazolo[1,5-c]pyrimidine monohydrochloride] | 9 |
| COCCN1CC=C(c2cc3nc(-c4ccco4)nn3c(N)n2)CC1 [Compound 73, 5-Amino-2-(2-furyl)-7-[1-(2-methoxyethyl)-1,2,3,6-tetra-hydropyridin-4-yl][1,2,4]triazolo[1,5-c]pyrimidine] | 9 |
| Nc1nc(C2=CCN(CCO)CC2)cc2nc(-c3ccco3)nn12 [Compound 75, 5-Amino-2-(2-furyl)-7-[1-(2-hydroxyethyl)-1,2,3,6-tetra-hydropyridin-4-yl][1,2,4]triazolo[1,5-c]pyrimidine] | 10 |
| Nc1nc(C(=O)N2CCC(Cc3ccccc3)CC2)cc2nc(-c3ccco3)nn12 [Compound 158, 5-Amino-2-(2-furyl)[1,2,4]triazolo[1,5-c]pyrimidin-7-yl 4-benzylpiperidino ketone] | 9 |
| Nc1nc(C2=CCN(Cc3csnn3)CC2)cc2nc(-c3ccco3)nn12 [Compound 72, 5-Amino-2-(2-furyl)-7-[1-(1,2,3-thiadiazol-4-yl)methyl-1,2,3,6-tetrahydropyridin-4-yl][1,2,4]triazolo[1,5-c]-pyrimidine] | 10 |
